Results published in patent publication US20250179195A1.
Results are given in words; binding and its absence hold for the method and conditions named. Some entries that bind do so weakly or less than the wild type.

Chains of the proteins cited; added tags and fusions are not shown. Lines headed by an entry give the natural chain unless they say otherwise; changes in a name come on top. Residues count along the entry.
UniProt P36888: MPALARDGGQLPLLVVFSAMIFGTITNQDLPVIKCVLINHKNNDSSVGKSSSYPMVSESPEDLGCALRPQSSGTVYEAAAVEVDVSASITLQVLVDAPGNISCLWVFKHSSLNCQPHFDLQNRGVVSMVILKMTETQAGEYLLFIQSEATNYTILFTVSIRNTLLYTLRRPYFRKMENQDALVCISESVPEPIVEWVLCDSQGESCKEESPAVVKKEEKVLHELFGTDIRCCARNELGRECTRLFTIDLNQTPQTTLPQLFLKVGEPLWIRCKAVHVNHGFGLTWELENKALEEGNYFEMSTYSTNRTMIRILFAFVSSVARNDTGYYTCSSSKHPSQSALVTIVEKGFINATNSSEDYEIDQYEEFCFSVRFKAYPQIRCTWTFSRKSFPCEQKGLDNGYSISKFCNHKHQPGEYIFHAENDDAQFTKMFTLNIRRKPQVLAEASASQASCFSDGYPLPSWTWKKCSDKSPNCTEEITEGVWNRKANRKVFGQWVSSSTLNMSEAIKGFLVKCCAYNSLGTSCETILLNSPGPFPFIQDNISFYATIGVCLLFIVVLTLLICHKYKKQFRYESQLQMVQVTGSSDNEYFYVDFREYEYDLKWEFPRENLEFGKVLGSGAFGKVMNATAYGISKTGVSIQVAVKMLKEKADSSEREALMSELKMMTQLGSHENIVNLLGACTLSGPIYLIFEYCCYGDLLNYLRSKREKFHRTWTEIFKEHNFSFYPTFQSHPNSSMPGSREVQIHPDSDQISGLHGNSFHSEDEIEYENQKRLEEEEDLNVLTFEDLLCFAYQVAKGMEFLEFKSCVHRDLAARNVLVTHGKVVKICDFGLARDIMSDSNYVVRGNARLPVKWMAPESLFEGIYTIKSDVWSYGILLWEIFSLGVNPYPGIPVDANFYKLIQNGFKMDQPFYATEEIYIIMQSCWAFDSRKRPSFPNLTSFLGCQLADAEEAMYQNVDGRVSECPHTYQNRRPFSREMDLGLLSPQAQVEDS
UniProt P49771, residues 27-185: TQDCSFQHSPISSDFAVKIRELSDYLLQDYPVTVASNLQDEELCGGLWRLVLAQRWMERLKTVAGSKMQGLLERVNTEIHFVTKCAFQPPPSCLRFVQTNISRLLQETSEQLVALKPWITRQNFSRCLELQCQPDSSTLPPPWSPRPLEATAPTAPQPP

Biological target: recombinant human FLT3 ECD his-tagged fusion receptor (Sino Biological) (human) (UniProt P36888)
Experiment: bio-layer interferometry (Octet QK384); FLT3-his immobilized on anti-penta-HIS (HIS1K) biosensor; 100 nM FLT3L without antibody, 300 s association

- binding: binds
Substance: FLT3 ligand (from UniProt P49771 27-185)
